For series [1], the system named is HCT116-DoxR (doxorubicin-resistant colorectal carcinoma cell line). Put plainly: MTS cell viability assay, HCT116-DoxR.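 For all read-outs here: MTS colorimetric quantification of viable cells, with loss of viability tracked as complex concentration rises, in DMEM-grown HCT116-DoxR, a line whose resistance involves P-glycoprotein efflux.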 The settings on record: for SI (ligands): IC50 fibroblasts / IC50 HCT116-DoxR, free ligands; for SI HCT116-DoxR: IC50 in fibroblasts / IC50 in HCT116-DoxR; for more selective for HCT116-DoxR cells than for nontumor cells: vs normal primary fibroblasts. (In general: Formazan colour is commonly taken as a measure of viable cells.)

Series [2] deals with A2780 (ovarian carcinoma cell line). The series is described as follows: MTS cell viability assay, A2780. The settings on record: IC50 in fibroblasts / IC50 in A2780. The series is classed as cell-based, human.
Series [3] relates to HCT116 (colorectal carcinoma cell line). The series is described as follows: MTS cell viability assay, HCT116. It is filed as cell-based, human. The settings on record: IC50 in fibroblasts / IC50 in HCT116.

“And” between values parts separate entries of the source, which are not always exact repeats. Equal entries are not always repeated.

Consider `COc1ccnc2c1ccc1c(OC)ccnc12` [4,7-(CH3O)2-phen, 4,7-dimethoxy-1,10-phenanthroline], for which the “SI (ligands)” value in series [1] is on record as 33.3.

Turning to `Clc1ccnc2c1ccc1c(Cl)ccnc12` [4,7-Cl2-phen, 4,7-dichloro-1,10-phenanthroline], the “SI (ligands)” value in series [1] was found to be 1.1. On the same count and under the same terms, the figure for `c1ccc(-c2ccnc3c2ccc2c(-c4ccccc4)ccnc23)cc1` [4,7-Ph2-phen, 4,7-diphenyl-1,10-phenanthroline] is 14.7. Turning to `c1cnc2c(c1)ccc1cccnc12` [Phen, 1,10-phenanthroline], the “SI (ligands)” value in series [1] was >31.3. As to `c1ccc(-c2nc3ccccc3[nH]2)nc1` [Pybim, 2-(2-pyridyl)benzimidazole], in series [1], the “SI (ligands)” value is 1.8.

Take `O=C1[O][V](=[O])[O]C(=O)c2cccc1n2.c1ccc(-c2ncc[nH]2)nc1` [complex 1, [VO(dipic)(pyim)]]: the “SI A2780” value in series [2] was 1.3. In addition, in series [3], the “SI HCT116” value is listed as >0.4.

Regarding `O=C1[O][V](=[O])[O]C(=O)c2cccc1n2.c1ccc(-c2nc3ccccc3[nH]2)nc1` [complex 2, [VO(dipic)(pybim)]], the “SI A2780” value in series [2] came to 2.3. In addition, the “SI HCT116-DoxR” value in series [1] is 0.5. Besides, the “SI HCT116” value in series [3] is recorded as >0.3. Consider `O=C1C(=O)c2cccnc2-c2ncccc21.O=C1[O][V](=[O])[O]C(=O)c2cccc1n2` [complex 3, [VO(dipic)(phendione)]], for which, in series [2], the “SI A2780” value is reported as 3.5. The “SI HCT116-DoxR” value in series [1] was 0.6 and 0.5. On to `Clc1ccnc2c1ccc1c(Cl)ccnc12.O=C1[O][V](=[O])[O]C(=O)c2cccc1n2` [complex 4, [VO(dipic)(4,7-Cl2-phen)]], for which the “SI HCT116-DoxR” value in series [1] is recorded as 1.0. Further, the “SI HCT116” value in series [3] is listed as 1.0. Turning to `COc1ccnc2c1ccc1c(OC)ccnc12.O=C1[O][V](=[O])[O]C(=O)c2cccc1n2` [complex 5, [VO(dipic)(4,7-(CH3O)2-phen)]], the “SI A2780” value in series [2] was 2.4. Further, the “SI HCT116-DoxR” value in series [1] amounted to 15.5. For the same molecule, the “SI HCT116” value in series [3] came out at 1.7. `O=C1[O][V](=[O])[O]C(=O)c2cccc1n2.c1ccc(-c2ccnc3c2ccc2c(-c4ccccc4)ccnc23)cc1` [complex 6, [VO(dipic)(4,7-Ph2-phen)]]: in series [1], the “SI HCT116-DoxR” value was determined as 20 and the “more selective for HCT116-DoxR cells than for nontumor cells” value was ~24 ×. Also, the “SI HCT116” value in series [3] is recorded as 4.4.

Regarding `O=C1[O][V](=[O])[O]C(=O)c2cccc1n2.c1ccc2c(c1)Sc1ccccc1N2c1ccnc2c1ccc1c(N3c4ccccc4Sc4ccccc43)ccnc12` [complex 7, [VO(dipic)(4,7-(phtiaz)2-phen)]], the “SI HCT116” value in series [3] is listed as >0.4. Consider `O=C1[O][V](=[O])[O]C(=O)c2cccc1n2.c1cnc2c(c1)ccc1cccnc12` [complex 8, [VO(dipic)(phen)]], for which, in series [1], the “SI HCT116-DoxR” value turned out to be 6.6 and the “more selective for HCT116-DoxR cells than for nontumor cells” value was ~7 ×. For the same molecule, the “SI HCT116” value in series [3] is recorded as 2.3. `O=C1[O][V](=[O])[O]C(=O)c2cccc1n2.c1ccc(-c2ccccn2)nc1` [complex 9, [VO(dipic)(bipy)]]: the “SI A2780” value in series [2] was 3.4. For the same molecule, the “SI HCT116-DoxR” value in series [1] turned out to be 0.4. The “SI HCT116” value in series [3] is recorded as 0.4.

With `O=C1[O][V](=[O])[O]C(=O)c2cccc1n2.c1c[nH]cn1.c1c[nH]cn1` [complex 10, [VO(dipic)(im)2]], the “SI A2780” value in series [2] is reported as 1.4. In addition, in series [3], the “SI HCT116” value is >0.4. Consider `O=C1C(=O)c2cccnc2-c2ncccc21` [phendione], for which, in series [1], the “SI (ligands)” value came to 2.6.

The values are drawn from PMC10350923, “In Vitro and In Vivo Biological Activities of Dipicolinate Oxovanadium(IV) Complexes” (Journal of Medicinal Chemistry, 2023).
